Values of other authors in PMC2751796 (Pharmacology & therapeutics, 2009).

Test system: MRPs, organic anion transporters
Details: rats; ref Tunblad et al., 2003; cited from earlier work

Question: Which “Increase of steady-state brain-to-blood ratio with probenecid” value does the source give for `CN1CC[C@]23c4c5ccc(O)c4O[C@H]2[C@@H](O)C=C[C@H]3[C@H]1C5` [Morphine] here?
Answer: Its value is 1.3 fold.
